Measurements: PubChem BioAssay AID504834 (National Center for Advancing Translational Sciences (NCATS), 2011)
Hit rate of the full screen: of about 320,000 compounds, about 22,000 (6.9%) were called active. The inconclusive results got no clear call from the source; some entries with a clear call stand among them for comparison. The call rests on the fitted dose curve; in most records, active means well fitted inhibition curve with a large enough effect; inconclusive means small, poorly fitted or top-dose-only effect, or another doubt; inactive means no such curve, though single readings can be large or run the other way. A potency beside an inconclusive call is a rough fit, not a confirmed value.

assay: Primary qHTS for delayed death inhibitors of the malarial parasite plastid, 96 hour incubation; conditions: P. falciparum luciferase reporter growth; series mostly up to 28.7 µM
Procedure, shortened: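 96 h incubation, 37 C, 5% CO2, of luciferase-reporter P. falciparum-infected RBCs (2% hematocrit, 0.05% parasitemia final) with test compounds; endpoint luminescence.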
Potency means the concentration at half of the fitted maximal effect.

Structure (SMILES)	Potency
CCCn1nc(NC(=O)CC(C)C)c2cc3cccc(C)c3nc21	inconclusive: 0.828 µM [inhibitor, partial curve, poor fit]
COc1ccc(CCN2CC(C(=O)NCc3ccc(F)cc3)CC2=O)cc1OC (stereo not drawn)	inactive
O=C1CCC(C(=O)OCC(=O)C23CC4CC(CC(C4)C2)C3)N1 (stereo not drawn)	inconclusive: 16.5 µM [inhibitor, single point]
COc1ccc(C(=O)NC(C)c2ccc(-n3ccnc3)cc2)cc1[N+](=O)[O-] (stereo not drawn)	inconclusive: 14.7 µM [inhibitor, partial curve]
Cc1ccc(Cl)cc1N1CCN(S(=O)(=O)c2cc3c(cc2C)NC(=O)CO3)CC1	inactive
CCCCN(C(=O)c1cc(Cl)nc2ccccc12)c1c(N)n(Cc2ccccc2)c(=O)[nH]c1=O	inconclusive: 2.62 µM [inhibitor, full curve, poor fit]
CN(CC(=O)N1CCN(Cc2ccccc2)CC1)C(=O)Cc1cccc2ccccc12	inconclusive: 5.86 µM [inhibitor, partial curve, poor fit]
CN(CC(=O)Nc1ccc(F)cc1)C(=O)COC(=O)c1cc(S(=O)(=O)N(C)C)ccc1N1CCCC1	active: 8.28 µM
O=C(NC(=O)c1c(F)cccc1F)Nc1cc(Cl)c(F)c(Cl)c1F	inactive
CCc1ccc2nc(N3CCC(C(=O)N4CCC5(CC4)OCCO5)CC3)sc2c1	inconclusive: 18.5 µM [inhibitor, partial curve, poor fit]
CN1CCN(NC(=O)c2cn(-c3ccccc3)nc2-c2cccs2)CC1	inconclusive: 18.5 µM [inhibitor, single point]
CC[n+]1ccc2cc(OC)c(OC)cc2c1Cc1ccc(OC)c(OC)c1	inconclusive: 1.31 µM [inhibitor, partial curve]
COc1cc2[nH]c(C(=O)Nc3ccc4c(c3)OCCO4)cc2c(OC)c1OC	inconclusive: 18.5 µM [inhibitor, single point]
CC(C)(C)SCCNC(=O)c1ccc(Cl)c([N+](=O)[O-])c1	inactive
COc1cc(SC)ccc1C(=O)NCC1CCCCC1	inconclusive: 18.5 µM [inhibitor, single point]
O=C1C2C3C=CC(CC3)C2C(=O)N1c1ccc([N+](=O)[O-])cc1 (stereo not drawn)	inconclusive: 11.7 µM [inhibitor, single point]
CC1(c2cc(F)ccc2F)NC(=O)N(CC(=O)Nc2cccc(S(=O)(=O)N3CCCC3)c2)C1=O (stereo not drawn)	inconclusive: 10.4 µM [inhibitor, partial curve, poor fit]
Cn1cccc1Cc1nnc(SCC(=O)N2CCc3ccccc32)n1-c1ccc(F)cc1	inactive

Another view of some results above:
Structure (SMILES) | Potency
COc1cc2[nH]c(C(=O)Nc3ccc4c(c3)OCCO4)cc2c(OC)c1OC | inconclusive: 18.5 µM [inhibitor, single point]
CC(C)(C)SCCNC(=O)c1ccc(Cl)c([N+](=O)[O-])c1 | inactive
